In patent publication US20120208291A1 one finds binding data, which are given here for 1 molecule.

Results are given in words; binding and its absence hold for the method and conditions named. Some results given as binding are weak or reduced against the parent protein; the word gives no strength. Tags and fused reporters may be left off the sequences shown.

This assay has as its target T1, immobilized synaptobrevin protein, SNB(1-94) thioester (UniProt O02495).
T1 sequence (C-terminal thioester reacted with surface-tethered cysteine, looked up): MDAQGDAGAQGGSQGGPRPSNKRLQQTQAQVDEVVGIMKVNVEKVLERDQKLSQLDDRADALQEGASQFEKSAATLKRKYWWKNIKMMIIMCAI
In words: single-molecule TIRF microscopy, GFP-syntaxin in solution on immobilized synaptobrevin.

B1: GFP labeled syntaxin (protein, UniProt O16000 1-265, looked up, not shown: large carriers)
chain: MTKDRLSALKAAQSEDEQDDDMHMDTGNAQYMEEFFEQVEEIRGSVDIIANNVEEVKKKHSAILSNPVNDQKTKEELDELMAVIKRAANKVRGKLKLIENAIDHDEQGAGNADLRIRKTQHSTLSRRFVEVMTDYNKTQTDYRERCKGRIQRQLDIAGKQVGDEDLEEMIESGNPGVFTQGIITDTQQAKQTLADIEARHNDIMKLESSIRELHDMFMDMAMLVESQGEMVDRIEYNVEHAKEFVDRAVADTKKAVQYQSKARRK
B1: the binding result is on record as “binds”.
